Assay results from US20250066287A1, “PHASE CHANGE AROMATIC AZO COMPOUNDS, METHOD OF MANUFACTURE, AND USE AS HOMOGENOUS CATALYST” (priority 2023, published 2025).
At least one structure is not confirmed: it was looked up by name or label, or the drawing left a doubt. Some entries share one result that the patent states for a list of compounds.

Tests used:
[1] = Light-induced precipitation of catalysts from pristine solvent; format: physicochemical
Protocol: FIG. 6 and FIG. 25 illustrate the efficiencies of 430 nm induced catalyst precipitation and recovery for compounds 1 and 2, which were obtained by weighing the filtered precipitates after irradiation. […] The full recovery of the catalysts is limited by the PSS ratios of compounds at 430 nm (82% for 1- E and 84% for 2-E).
Light-induced precipitation of catalysts. To determine light-induced precipitation of catalysts, 44 mg of compound 1 and 34 mg of compound 2 were added to 2 mL of acetonitrile and methanol, respectively. The suspensions were irradiated at 340 nm overnight to obtain clear Z solutions. Then, the solutions were irradiated at 430 nm and monitored over 10 min.

SMILES: CN(CCCNC(=O)c1ccc(-c2ccc(C(=O)NCCCN(C)CCc3ccc(N=Nc4ccccc4)cc3)cc2)cc1)CCc1ccc(N=Nc2ccccc2)cc1 [Compound 2]
- precipitation ([1]; within 10 min of 430 nm irradiation, 1 in acetonitrile, 2 in methanol): > 50%
- catalyst recovery by 430 nm induced precipitation from pristine solvent ([1]; within two hours of 430 nm irradiation, 1 in pristine acetonitrile, 2 in pristine methanol): 81%
- time in which the reaction reaches completion: 4 h
